Measurements reported in PubChem BioAssay AID743121 (NCATS, 2013).
Shown is an unselected part of about 26,000 reagents. 167 of them (0.63%) count as active. 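Calls are per gene from RSA p-values that are not deposited; an individual active-marked siRNA can sensitise only weakly.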 A number with no mark means an inactive call. Reagents against one gene are numbered here.

Aim: 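Partners whose loss is lethal together with topoisomerase I blockade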 (primary screen)
System: MDA-MB-231 cells, a human breast cancer line
Reagent: single siRNA against human genes, 20 nM siRNA (0.8 pmol per well)
Duration: 120 h (drug added 48 h after transfection, read 72 h later)
Conditions: camptothecin 20 nM (about EC30) for 72 h; vehicle 0.1% DMSO in parallel plates
Read-out: 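CellTiter-Glo ATP signal, scaled to control siRNA as percent viability; sensitisation given as log2 of untreated divided by camptothecin-treated viability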
Scale: log2 vehicle/camptothecin viability: higher = stronger sensitisation to camptothecin; viability with camptothecin and viability without drug: higher = more viable cells
Active means: 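Active genes have an RSA gene-level p-value below 0.001, computed from the ratios of their separate siRNAs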

Target gene | siRNA no. | log2 vehicle/camptothecin viability | viability with camptothecin (% of control) | viability without drug (% of control)
QRICH1 | 1 | -0.0693 | 75 | 71.5
QRICH1 | 2 | -0.202 | 116 | 101
QRICH1 | 3 | -0.151 | 37.1 | 33.5
QRICH1 | 4 | 0.0922 | 82.8 | 88.3
IMPG2 | 1 | -0.273 | 88.7 | 73.5
IMPG2 | 2 | 0.0586 | 96.5 | 100
IMPG2 | 3 | -0.0564 | 79.9 | 76.9
IMPG2 | 4 | 0.123 | 95.8 | 104
SLC25A17 | 1 | -0.331 | 94.8 | 75.4
SLC25A17 | 2 | -0.71 | 41.2 | 25.2
SLC25A17 | 3 | 0.0135 | 84.9 | 85.7
NOG | 1 | -0.407 | 47.6 | 35.9
NOG | 2 | -0.0926 | 98.7 | 92.6
NOG | 3 | -0.0576 | 93.2 | 89.6
NOG | 4 | -0.213 | 116 | 100
CD99 | 1 | -0.0819 | 98.9 | 93.4
CD99 | 2 | -0.614 | 94.7 | 61.9
CD99 | 3 | 0.0612 | 95.6 | 99.7
PLK4 | 1 | -0.403 | 61.7 | 46.7
PLK4 | 2 | -0.233 | 87.4 | 74.4
PLK4 | 3 | -0.252 | 81.5 | 68.4
PLK4 | 4 | -0.536 | 92.6 | 63.8
IL12A | 1 | -0.22 | 92.8 | 79.6
IL12A | 2 | -0.212 | 113 | 97.4
IL12A | 3 | 0.106 | 94.2 | 101
CD300LF | 1 | -0.112 | 68.3 | 63.2
CD300LF | 2 | -0.199 | 80.4 | 70
CD300LF | 3 | -0.316 | 52.7 | 42.3
CD300LF | 4 | 0.265 | 31.2 | 37.5
CCR9 | 1 | -0.0138 | 106 | 105
CCR9 | 2 | -0.251 | 108 | 90.4
CCR9 | 3 | 0.561 | 73 | 108
CCR9 | 4 | -0.099 | 95.8 | 89.4
PAH | 1 | -0.231 | 96 | 81.8
PAH | 2 | -0.295 | 89.5 | 73
PAH | 3 | 0.0228 | 98.1 | 99.6
PAH | 4 | 0.303 | 99.1 | 122
MED14 | 1 | -0.267 | 50.4 | 41.9
MED14 | 2 | -0.0709 | 59.4 | 56.5
MED14 | 3 | -0.237 | 63.2 | 53.6
MED14 | 4 | -0.562 | 78.9 | 53.5
MMP24 | 1 | 0.484 | 14.4 | 20.2
MMP24 | 2 | -0.458 | 39.1 | 28.5
MMP24 | 3 | -0.0125 | 104 | 103
MMP24 | 4 | 0.452 | 48 | 65.6

Part of the list above, limited to “viability with camptothecin (% of control)”:
CD99 #1: 98.9
CD99 #2: 94.7
CD99 #3: 95.6
PLK4 #1: 61.7
PLK4 #2: 87.4
PLK4 #3: 81.5
PLK4 #4: 92.6

The results go on.
Target gene | siRNA no. | log2 vehicle/camptothecin viability | viability with camptothecin (% of control) | viability without drug (% of control)
CENPH | 1 | 0.181 | 85.4 | 96.9
CENPH | 2 | -0.164 | 88.2 | 78.8
CENPH | 3 | -0.0975 | 80.4 | 75.2
CENPH | 4 | -0.943 | 88.9 | 46.2
ARID4A | 1 | -0.0419 | 109 | 106
ARID4A | 2 | 0.42 | 63.9 | 85.5
ARID4A | 3 | -0.302 | 88.7 | 72
ARID4A | 4 | -0.548 | 101 | 68.8
PRSS12 | 1 | 0.0493 | 78.1 | 80.9
PRSS12 | 2 | -0.0984 | 96 | 89.7
PRSS12 | 3 | -0.194 | 48.2 | 42.1
FOXN1 | 1 | 0.0109 | 59.7 | 60.1
FOXN1 | 2 | -0.338 | 84.7 | 67
FOXN1 | 3 | -0.384 | 69.3 | 53.1
FOXN1 | 4 | 1.1 | 15.3 | 32.8
CETP | 1 | -0.343 | 101 | 79.8
CETP | 2 | 0.288 | 26.9 | 32.8
CETP | 3 | 0.341 | 15.1 | 19.2
CETP | 4 | -0.49 | 50 | 35.6
MPP7 | 1 | -0.269 | 99.4 | 82.5
MPP7 | 2 | -0.00623 | 68.8 | 68.5
MPP7 | 3 | -0.3 | 68.5 | 55.7
MPP7 | 4 | 0.043 | 101 | 104
